Data on one substance can be found in publication PMC5656798.

This experiment has as its target HIV Vif Δ12 (HIV-1) (UniProt P12504). Nature of the experiment: velocity sedimentation through sucrose gradients; 293T lysates (50 mM NaCl, 5 mM Na2EDTA, 150 mM Tris·HCl pH 7.6, 1 % Triton X-100), 10–20–30–40–50 % sucrose step gradient, 60 min at 163 000g; fractions blotted with anti-HA; Vif expressed with an empty vector, CBF-β or CBF-β F68D; also in CBF-β knockdown 293T cells.

Results are given in words; binding and its absence hold for the method and conditions named. Some binding calls cover weakened binding; strength is not graded here.

Take “HIV Vif Δ12 (from UniProt P12504 13-192) (domain or fragment)”: the binding entry was “binds”.
